Data: paper PMC4538836
For part of these data: Negatives hold for the conditions tested. For part of these data: Protein sequences can lack the tags named with them. Construct, isoform or probe ends are uncertain for at least one entry. For part of these data: At least one verdict was read from the data and is not stated in words by the source.

Chains of the proteins cited; added tags and fusions are not shown. A line that says so, or that is headed by a name, gives the form on record, which may keep a tag or linker.
DNA ligase I (Homo sapiens), one chain, as listed by the source: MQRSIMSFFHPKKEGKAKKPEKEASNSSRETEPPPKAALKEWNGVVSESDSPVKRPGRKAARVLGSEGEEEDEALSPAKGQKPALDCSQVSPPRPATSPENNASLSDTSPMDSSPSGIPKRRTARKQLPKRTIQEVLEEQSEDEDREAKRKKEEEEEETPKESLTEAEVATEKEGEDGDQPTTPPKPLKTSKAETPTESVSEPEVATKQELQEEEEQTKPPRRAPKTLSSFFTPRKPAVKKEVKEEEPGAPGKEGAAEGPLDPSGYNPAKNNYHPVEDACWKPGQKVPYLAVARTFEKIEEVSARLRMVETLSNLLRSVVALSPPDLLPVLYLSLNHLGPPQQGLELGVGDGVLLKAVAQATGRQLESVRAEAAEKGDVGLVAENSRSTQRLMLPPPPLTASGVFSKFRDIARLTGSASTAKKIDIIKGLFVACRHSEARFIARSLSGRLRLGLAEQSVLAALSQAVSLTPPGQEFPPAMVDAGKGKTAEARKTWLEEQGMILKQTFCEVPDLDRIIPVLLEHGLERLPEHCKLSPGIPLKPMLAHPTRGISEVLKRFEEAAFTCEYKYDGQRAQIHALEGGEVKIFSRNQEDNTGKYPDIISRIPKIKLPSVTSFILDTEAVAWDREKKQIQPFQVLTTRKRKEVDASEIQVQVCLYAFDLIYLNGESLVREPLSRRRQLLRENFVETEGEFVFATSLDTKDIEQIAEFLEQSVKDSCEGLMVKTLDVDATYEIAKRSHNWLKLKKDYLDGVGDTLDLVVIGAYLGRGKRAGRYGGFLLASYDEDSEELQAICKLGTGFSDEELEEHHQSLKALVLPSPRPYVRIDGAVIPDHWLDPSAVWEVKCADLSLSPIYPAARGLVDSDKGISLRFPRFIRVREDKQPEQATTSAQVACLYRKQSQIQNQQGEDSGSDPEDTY

Key:
[1] = system: T1, ΔOBD LigIII (Homo sapiens); assay: fluorescence anisotropy; details: Kapp, 5 mM Mg2+, 1 mM ATP, protein assignment from order of extracted table, 50 mM HEPES-NaOH pH 7.5, 80 mM NaCl, 5 mM MgCl2, 1 mM DTT, 50 ug/ml BSA, anisotropy 25 C (25 nM DNA), TR-FRET room temperature, pull-down 4 C, recombinant protein, residues 1-595, protein details: C-terminal His (pET28a), label: 5'-FITC on strand 1
T1 sequence (looked up): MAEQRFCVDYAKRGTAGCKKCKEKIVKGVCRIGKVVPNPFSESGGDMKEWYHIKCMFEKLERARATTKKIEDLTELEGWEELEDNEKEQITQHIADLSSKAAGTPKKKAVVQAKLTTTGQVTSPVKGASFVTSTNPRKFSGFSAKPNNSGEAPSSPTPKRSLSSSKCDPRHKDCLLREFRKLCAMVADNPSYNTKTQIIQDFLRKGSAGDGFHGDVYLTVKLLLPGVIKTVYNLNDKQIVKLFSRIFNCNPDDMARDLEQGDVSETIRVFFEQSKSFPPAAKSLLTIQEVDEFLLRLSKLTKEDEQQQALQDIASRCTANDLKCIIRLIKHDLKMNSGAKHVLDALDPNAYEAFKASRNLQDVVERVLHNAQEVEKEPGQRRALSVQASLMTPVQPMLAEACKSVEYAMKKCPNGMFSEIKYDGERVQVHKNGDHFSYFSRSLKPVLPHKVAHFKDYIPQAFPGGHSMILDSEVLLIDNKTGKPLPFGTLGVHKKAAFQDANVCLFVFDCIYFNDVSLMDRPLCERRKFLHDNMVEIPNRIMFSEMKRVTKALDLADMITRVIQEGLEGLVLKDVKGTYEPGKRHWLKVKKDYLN

[2] = system: T2, ΔZnF LigIII (Homo sapiens); assay: fluorescence anisotropy; details: Kapp, 5 mM Mg2+, 1 mM ATP, protein assignment from order of extracted table, 50 mM HEPES-NaOH pH 7.5, 80 mM NaCl, 5 mM MgCl2, 1 mM DTT, 50 ug/ml BSA, anisotropy 25 C (25 nM DNA), TR-FRET room temperature, pull-down 4 C, recombinant protein, residues 170-749, protein details: N-terminal His (pET28a), label: 5'-FITC on strand 1
T2 sequence (looked up): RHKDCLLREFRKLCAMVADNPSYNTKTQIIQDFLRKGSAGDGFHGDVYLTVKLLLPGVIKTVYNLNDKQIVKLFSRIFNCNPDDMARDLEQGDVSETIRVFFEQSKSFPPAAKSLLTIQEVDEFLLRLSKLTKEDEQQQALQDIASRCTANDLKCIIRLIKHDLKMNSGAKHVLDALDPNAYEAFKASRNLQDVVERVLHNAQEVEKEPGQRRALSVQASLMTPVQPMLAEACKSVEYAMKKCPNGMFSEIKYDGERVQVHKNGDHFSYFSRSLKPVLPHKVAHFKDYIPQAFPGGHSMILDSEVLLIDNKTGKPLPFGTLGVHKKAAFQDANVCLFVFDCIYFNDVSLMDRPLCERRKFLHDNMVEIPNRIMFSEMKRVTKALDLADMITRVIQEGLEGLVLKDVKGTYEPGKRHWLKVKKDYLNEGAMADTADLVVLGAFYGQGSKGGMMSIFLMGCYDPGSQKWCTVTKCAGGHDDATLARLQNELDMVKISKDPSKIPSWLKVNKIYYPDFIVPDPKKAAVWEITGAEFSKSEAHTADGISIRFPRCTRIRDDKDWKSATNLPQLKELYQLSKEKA

[3] = system: T2, ΔZnF LigIII (Homo sapiens); assay: pull-down; details: bridging read-out only, binds single duplex; 50 mM HEPES-NaOH pH 7.5, 80 mM NaCl, 5 mM MgCl2, 1 mM DTT, 1 mM ATP, 50 ug/ml BSA; anisotropy 25 C (25 nM DNA), TR-FRET room temperature, pull-down 4 C; recombinant protein; residues 170-749; protein details: N-terminal His (pET28a)
[4] = system: T3, DNA ligase III beta (LigIII) (Homo sapiens); assay: pull-down; details: 50 mM HEPES-NaOH pH 7.5, 80 mM NaCl, 5 mM MgCl2, 1 mM DTT, 1 mM ATP, 50 ug/ml BSA, anisotropy 25 C (25 nM DNA), TR-FRET room temperature, pull-down 4 C, recombinant protein, residues 1-862, protein details: N-terminal His (pQE32)
T3 sequence (looked up): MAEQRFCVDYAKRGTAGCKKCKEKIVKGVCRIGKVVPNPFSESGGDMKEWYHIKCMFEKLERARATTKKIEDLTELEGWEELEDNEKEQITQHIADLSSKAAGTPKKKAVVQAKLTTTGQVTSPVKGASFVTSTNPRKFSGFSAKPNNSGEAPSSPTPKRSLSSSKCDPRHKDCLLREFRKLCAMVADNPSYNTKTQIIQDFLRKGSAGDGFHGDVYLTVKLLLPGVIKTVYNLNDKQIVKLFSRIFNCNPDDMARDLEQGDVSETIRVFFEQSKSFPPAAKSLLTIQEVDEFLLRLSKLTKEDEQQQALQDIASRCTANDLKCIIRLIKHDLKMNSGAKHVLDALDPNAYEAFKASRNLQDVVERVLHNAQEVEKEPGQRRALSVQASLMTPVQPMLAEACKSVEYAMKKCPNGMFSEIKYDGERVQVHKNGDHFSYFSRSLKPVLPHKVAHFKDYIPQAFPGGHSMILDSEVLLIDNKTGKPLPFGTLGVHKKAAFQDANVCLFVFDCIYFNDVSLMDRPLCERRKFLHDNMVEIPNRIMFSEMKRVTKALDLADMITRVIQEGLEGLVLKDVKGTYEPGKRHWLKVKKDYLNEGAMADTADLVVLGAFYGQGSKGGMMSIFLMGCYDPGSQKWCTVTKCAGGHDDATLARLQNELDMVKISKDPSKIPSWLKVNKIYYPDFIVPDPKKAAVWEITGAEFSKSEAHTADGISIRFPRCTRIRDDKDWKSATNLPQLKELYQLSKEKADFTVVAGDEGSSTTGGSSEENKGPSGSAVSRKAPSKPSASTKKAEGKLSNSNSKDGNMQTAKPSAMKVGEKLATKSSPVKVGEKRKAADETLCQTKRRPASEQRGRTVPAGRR

[5] = system: DNA ligase I (Homo sapiens); assay: TR-FRET; details: bridging read-out only, end type not stated; 50 mM HEPES-NaOH pH 7.5, 80 mM NaCl, 5 mM MgCl2, 1 mM DTT, 1 mM ATP, 50 ug/ml BSA; anisotropy 25 C (25 nM DNA), TR-FRET room temperature, pull-down 4 C; recombinant protein
[6] = system: T1, ΔOBD LigIII (Homo sapiens); assay: TR-FRET; details: bridging read-out only, end type not stated; 50 mM HEPES-NaOH pH 7.5, 80 mM NaCl, 5 mM MgCl2, 1 mM DTT, 1 mM ATP, 50 ug/ml BSA; anisotropy 25 C (25 nM DNA), TR-FRET room temperature, pull-down 4 C; recombinant protein; residues 1-595; protein details: C-terminal His (pET28a)
[7] = system: T2, ΔZnF LigIII (Homo sapiens); assay: TR-FRET; details: bridging read-out only, end type not stated; 50 mM HEPES-NaOH pH 7.5, 80 mM NaCl, 5 mM MgCl2, 1 mM DTT, 1 mM ATP, 50 ug/ml BSA; anisotropy 25 C (25 nM DNA), TR-FRET room temperature, pull-down 4 C; recombinant protein; residues 170-749; protein details: N-terminal His (pET28a)
[8] = system: T4, LigIII, deadenylated (Homo sapiens); assay: TR-FRET; details: end type not stated, 50 mM HEPES-NaOH pH 7.5, 80 mM NaCl, 5 mM MgCl2, 1 mM DTT, 1 mM ATP, 50 ug/ml BSA, anisotropy 25 C (25 nM DNA), TR-FRET room temperature, pull-down 4 C, recombinant protein, residues 1-862, protein details: N-terminal His (pQE32)
T4 sequence (looked up): T3 sequence (looked up)

[9] = system: T3, DNA ligase III beta (LigIII) (Homo sapiens); assay: TR-FRET; details: 50 mM HEPES-NaOH pH 7.5, 80 mM NaCl, 5 mM MgCl2, 1 mM DTT, 1 mM ATP, 50 ug/ml BSA, anisotropy 25 C (25 nM DNA), TR-FRET room temperature, pull-down 4 C, recombinant protein

Question: For “CATGATTACGG / ATTCCGTAATCATG [FITC duplex with 3-nt 5' overhang]”, which Kd [1] is on record?
Answer: Its Kd is 308 nM.

Question: What about the Kd [2] of the same sequence?
Answer: The Kd was 166 nM.

Question: Does “AGTGAATTCGAGCTCG / AATCGAGCTCGCAATTCACT / CATGATTACGG / ATTCCGTAATCATG [bridged pair, complementary 3-nt overhangs]” bind [3]?
Answer: Result: no binding

Question: Does “AGTGAATTCGAGCTCG / AATCGAGCTCGCAATTCACT / CATGATTACGG / ATTCCGTAATCATG [bridged pair, complementary 3-nt overhangs]” bind ([4]; bridging, biotin DNA on beads)?
Answer: Result: binds

Question: Does “AGTGAATTCGAGCTCG / AATCGAGCTCGCAATTCACT / CATGATTACGG / ATTCCGTAATCATG [bridged pair, complementary 3-nt overhangs]” bind [5]?
Answer: Result: no binding

Question: Does “AGTGAATTCGAGCTCG / AATCGAGCTCGCAATTCACT / CATGATTACGG / ATTCCGTAATCATG [bridged pair, complementary 3-nt overhangs]” bind [6]?
Answer: Result: no binding

Question: Does “AGTGAATTCGAGCTCG / AATCGAGCTCGCAATTCACT / CATGATTACGG / ATTCCGTAATCATG [bridged pair, complementary 3-nt overhangs]” bind [7]?
Answer: Result: no binding

Question: Does “AGTGAATTCGAGCTCG / AATCGAGCTCGCAATTCACT / CATGATTACGG / ATTCCGTAATCATG [bridged pair, complementary 3-nt overhangs]” bind ([8]; ATP added back, bridging restored)?
Answer: Result: binds

Question: Does “AGTGAATTCGAGCTCG / AATCGAGCTCGCAATTCACT / CATGATTACGG / ATTCCGTAATCATG [bridged pair, complementary 3-nt overhangs]” bind ([8]; no ATP, bridging read-out only)?
Answer: Result: no binding

Question: Does “AGTGAATTCGAGCTCG / AATCGAGCTCGCAATTCACT / CATGATTACGG / ATTCCGTAATCATG [bridged pair, complementary 3-nt overhangs]” bind ([9]; 5 mM EDTA added, bridging read-out only, end type not stated, residues 1-862, protein details: N-terminal His (pQE32))?
Answer: Result: no binding

Question: Does “AGTGAATTCGAGCTCG / AATCGAGCTCGCAATTCACT / CATGATTACGG / ATTCCGTAATCATG [bridged pair, complementary 3-nt overhangs]” bind ([9]; DNA bridging, 5 mM Mg2+, residues 1-862, protein details: N-terminal His (pQE32))?
Answer: Result: binds

Question: Does “AGTGAATTCGAGCTCG / AATCGAGCTCGCAATTCACT / CATGATTACGG / CCGTAATCATG [mismatched pair: biotin overhang + FITC blunt]” bind ([4]; bridging read-out only, data not shown, label: 5'-biotin on S1, 5'-FITC on S3, letters put together from the description)?
Answer: Result: no binding
